Some of the results follow.
What was measured:
Experiment in all cases: log2 fold change, soluble protein after heating vs DMSO (PISA); higher = thermal stabilisation; K562 lysate, 10 uM; active = over 0.2 and 3.5 SD of the protein, either way, in both replicates (recomputed)
[1] = compound: NCC(=O)Nc1ccc(-n2nc(C(F)(F)F)cc2-c2ccc3c(ccc4ccccc43)c2)cc1
Outline: (§1)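 Dounce homogenisation of K562 pellets in PBS pH 7.4 with 1 mM MgCl2 produced a crude extract, used at 1 mg/mL protein. Exposure to 10 μM compound lasted 30 min, and aliquots were then heated for 3 min across 48°C-58°C, pooled and brought to 0.5% NP-40 at 4°C. The supernatant after 21,000xg for 90 min was quantified by TMTpro 16plex LC-MS/MS with channel sums equalised. Duplicate values are given as log-two fold change in thermal stability relative to solvent controls.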

Amino acid sequences for entries named in this document (tags omitted). A change or cut given only in a name is not applied to a line headed by its entry.
UniProt Q9H875: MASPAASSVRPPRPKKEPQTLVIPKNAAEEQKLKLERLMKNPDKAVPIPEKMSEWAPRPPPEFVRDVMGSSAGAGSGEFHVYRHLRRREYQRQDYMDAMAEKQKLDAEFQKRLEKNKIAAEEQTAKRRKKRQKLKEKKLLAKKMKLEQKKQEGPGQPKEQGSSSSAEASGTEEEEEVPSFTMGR
UniProt Q13427: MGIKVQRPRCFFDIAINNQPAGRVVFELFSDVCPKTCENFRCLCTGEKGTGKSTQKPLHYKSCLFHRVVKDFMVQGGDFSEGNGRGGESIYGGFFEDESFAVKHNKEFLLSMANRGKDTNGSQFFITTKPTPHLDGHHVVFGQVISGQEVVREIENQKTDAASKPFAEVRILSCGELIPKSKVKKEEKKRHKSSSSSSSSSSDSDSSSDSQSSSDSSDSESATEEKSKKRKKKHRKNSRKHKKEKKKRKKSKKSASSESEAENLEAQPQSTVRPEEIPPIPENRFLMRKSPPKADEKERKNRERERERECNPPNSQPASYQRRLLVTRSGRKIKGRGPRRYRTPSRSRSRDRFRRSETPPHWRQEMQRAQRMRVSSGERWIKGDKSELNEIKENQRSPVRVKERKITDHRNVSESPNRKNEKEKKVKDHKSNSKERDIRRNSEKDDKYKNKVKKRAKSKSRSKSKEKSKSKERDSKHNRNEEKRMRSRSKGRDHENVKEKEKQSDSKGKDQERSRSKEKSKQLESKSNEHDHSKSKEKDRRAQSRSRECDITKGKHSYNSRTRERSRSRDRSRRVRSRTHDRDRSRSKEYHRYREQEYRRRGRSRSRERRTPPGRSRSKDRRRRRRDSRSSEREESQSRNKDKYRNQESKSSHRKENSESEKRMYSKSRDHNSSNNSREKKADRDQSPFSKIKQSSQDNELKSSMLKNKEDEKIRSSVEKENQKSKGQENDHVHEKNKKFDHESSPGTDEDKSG
UniProt Q13362, whole entry, looked up: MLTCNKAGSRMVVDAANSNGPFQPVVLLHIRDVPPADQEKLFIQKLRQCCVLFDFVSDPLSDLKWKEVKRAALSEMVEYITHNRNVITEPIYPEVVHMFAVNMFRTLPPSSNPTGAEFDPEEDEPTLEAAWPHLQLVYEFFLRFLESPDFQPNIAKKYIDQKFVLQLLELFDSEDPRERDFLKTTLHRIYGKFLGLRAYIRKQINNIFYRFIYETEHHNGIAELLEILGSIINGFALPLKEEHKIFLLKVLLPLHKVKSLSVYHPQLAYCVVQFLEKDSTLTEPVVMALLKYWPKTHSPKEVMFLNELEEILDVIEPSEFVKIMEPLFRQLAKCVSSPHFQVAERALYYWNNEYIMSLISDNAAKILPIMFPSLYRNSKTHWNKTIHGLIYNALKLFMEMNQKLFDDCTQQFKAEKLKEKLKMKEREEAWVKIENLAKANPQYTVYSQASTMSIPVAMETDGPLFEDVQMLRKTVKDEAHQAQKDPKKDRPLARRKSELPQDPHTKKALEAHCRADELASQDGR
UniProt Q6IN85: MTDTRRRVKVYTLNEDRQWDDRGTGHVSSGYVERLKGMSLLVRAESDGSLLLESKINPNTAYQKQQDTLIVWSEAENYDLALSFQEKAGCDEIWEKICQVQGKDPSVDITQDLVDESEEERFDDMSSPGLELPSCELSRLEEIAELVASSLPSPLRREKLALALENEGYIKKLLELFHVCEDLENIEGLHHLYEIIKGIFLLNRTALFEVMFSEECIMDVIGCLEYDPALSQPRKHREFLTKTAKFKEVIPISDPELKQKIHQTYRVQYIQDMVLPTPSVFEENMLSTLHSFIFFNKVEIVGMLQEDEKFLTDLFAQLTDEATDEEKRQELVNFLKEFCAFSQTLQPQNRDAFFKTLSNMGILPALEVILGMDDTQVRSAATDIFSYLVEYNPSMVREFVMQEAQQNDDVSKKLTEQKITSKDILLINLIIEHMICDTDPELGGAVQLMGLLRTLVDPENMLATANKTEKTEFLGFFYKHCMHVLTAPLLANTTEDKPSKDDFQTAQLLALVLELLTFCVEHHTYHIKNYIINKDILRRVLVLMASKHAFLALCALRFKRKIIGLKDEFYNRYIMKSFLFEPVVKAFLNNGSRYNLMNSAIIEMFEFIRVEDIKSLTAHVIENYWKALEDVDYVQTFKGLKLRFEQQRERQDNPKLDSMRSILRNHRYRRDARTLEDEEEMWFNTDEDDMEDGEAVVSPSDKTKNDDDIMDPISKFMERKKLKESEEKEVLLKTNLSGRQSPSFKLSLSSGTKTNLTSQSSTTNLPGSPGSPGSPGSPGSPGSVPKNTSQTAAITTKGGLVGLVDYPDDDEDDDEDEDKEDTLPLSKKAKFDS
UniProt Q96LW4: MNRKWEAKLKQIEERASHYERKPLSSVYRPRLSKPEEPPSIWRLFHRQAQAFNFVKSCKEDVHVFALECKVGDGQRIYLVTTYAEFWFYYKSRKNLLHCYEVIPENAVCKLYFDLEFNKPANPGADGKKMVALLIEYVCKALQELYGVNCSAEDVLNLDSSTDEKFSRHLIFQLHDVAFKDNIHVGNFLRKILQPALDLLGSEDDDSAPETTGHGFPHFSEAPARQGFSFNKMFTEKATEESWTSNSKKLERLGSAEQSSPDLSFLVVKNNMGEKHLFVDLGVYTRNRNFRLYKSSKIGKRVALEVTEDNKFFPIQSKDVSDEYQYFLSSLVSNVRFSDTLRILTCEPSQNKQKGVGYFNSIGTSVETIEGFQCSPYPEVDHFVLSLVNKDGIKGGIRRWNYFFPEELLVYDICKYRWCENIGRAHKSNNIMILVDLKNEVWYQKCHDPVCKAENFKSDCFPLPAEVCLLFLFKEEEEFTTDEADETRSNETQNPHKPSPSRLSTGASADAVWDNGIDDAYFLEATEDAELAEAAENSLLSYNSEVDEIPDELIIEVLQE
UniProt Q96QC0: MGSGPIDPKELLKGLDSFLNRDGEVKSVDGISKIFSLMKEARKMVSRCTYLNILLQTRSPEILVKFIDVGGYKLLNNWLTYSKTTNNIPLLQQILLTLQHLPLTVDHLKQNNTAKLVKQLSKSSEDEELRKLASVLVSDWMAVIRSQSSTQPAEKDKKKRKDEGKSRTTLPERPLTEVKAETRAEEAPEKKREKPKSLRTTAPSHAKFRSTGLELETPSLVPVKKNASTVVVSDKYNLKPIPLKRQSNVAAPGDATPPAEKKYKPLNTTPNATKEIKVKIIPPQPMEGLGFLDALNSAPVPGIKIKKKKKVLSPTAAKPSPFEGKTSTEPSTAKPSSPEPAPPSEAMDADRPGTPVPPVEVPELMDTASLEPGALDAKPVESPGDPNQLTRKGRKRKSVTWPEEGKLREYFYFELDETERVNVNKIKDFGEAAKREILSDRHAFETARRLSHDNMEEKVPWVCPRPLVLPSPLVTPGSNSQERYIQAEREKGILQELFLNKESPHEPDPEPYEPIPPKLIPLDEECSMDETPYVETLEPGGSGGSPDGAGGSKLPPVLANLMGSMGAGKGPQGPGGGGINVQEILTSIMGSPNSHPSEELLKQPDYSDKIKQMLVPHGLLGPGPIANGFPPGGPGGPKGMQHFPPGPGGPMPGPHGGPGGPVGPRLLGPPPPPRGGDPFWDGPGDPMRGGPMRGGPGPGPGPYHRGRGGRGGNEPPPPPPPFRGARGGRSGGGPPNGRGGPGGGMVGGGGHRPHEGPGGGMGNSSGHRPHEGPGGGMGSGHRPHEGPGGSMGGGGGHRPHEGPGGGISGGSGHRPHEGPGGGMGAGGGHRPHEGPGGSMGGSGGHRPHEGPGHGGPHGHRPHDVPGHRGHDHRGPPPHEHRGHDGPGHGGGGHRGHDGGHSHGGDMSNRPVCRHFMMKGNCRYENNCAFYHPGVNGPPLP
UniProt Q9UMS4: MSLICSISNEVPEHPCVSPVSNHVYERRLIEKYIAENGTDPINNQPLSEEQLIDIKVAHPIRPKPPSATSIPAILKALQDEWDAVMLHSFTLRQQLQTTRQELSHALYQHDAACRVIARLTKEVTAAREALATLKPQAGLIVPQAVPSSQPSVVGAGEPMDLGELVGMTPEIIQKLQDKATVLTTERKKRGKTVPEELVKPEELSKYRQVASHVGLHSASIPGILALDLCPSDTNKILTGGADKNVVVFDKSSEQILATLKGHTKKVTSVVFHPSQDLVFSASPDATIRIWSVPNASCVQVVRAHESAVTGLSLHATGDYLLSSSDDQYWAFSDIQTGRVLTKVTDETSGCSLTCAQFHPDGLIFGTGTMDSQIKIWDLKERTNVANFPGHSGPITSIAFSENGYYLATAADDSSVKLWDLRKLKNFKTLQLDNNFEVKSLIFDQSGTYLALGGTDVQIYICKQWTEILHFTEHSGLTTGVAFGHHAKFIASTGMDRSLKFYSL
UniProt P42785: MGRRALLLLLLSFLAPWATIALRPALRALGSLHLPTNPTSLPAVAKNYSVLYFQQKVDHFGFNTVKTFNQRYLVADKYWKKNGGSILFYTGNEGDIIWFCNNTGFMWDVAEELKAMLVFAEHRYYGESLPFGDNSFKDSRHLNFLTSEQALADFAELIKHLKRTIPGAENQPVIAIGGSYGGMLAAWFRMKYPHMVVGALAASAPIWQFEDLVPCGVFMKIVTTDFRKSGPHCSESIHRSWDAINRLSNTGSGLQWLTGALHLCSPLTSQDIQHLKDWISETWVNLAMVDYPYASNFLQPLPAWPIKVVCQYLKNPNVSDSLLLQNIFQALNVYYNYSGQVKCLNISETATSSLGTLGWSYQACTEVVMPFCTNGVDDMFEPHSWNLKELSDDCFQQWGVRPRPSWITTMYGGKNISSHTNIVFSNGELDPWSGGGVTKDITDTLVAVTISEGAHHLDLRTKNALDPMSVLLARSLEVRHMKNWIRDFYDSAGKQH
UniProt O14974: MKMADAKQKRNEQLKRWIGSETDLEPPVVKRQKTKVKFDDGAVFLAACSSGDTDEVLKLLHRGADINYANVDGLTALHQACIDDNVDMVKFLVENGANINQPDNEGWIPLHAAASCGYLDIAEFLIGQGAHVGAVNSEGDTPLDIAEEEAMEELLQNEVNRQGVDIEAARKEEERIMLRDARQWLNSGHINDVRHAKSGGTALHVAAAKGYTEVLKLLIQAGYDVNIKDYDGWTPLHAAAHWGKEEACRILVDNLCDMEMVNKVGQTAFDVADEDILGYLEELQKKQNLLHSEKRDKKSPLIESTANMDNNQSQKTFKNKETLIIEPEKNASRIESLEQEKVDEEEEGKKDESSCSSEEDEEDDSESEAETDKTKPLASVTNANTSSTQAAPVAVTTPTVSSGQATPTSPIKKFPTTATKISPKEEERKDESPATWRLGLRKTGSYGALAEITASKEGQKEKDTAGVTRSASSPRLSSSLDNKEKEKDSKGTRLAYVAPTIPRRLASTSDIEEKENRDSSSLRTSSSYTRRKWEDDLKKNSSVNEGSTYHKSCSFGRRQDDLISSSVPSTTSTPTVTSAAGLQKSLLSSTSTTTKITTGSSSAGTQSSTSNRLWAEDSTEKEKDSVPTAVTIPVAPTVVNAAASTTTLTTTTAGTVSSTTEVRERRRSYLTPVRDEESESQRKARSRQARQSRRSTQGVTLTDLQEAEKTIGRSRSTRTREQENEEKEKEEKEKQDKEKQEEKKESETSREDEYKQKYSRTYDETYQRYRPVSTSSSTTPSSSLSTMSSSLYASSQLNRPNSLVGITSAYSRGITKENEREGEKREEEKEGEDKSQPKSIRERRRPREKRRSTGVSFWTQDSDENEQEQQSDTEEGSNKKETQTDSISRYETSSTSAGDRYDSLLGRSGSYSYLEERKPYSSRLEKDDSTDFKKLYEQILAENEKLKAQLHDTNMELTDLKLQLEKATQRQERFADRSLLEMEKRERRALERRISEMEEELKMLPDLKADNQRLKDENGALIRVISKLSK
UniProt Q8WY54: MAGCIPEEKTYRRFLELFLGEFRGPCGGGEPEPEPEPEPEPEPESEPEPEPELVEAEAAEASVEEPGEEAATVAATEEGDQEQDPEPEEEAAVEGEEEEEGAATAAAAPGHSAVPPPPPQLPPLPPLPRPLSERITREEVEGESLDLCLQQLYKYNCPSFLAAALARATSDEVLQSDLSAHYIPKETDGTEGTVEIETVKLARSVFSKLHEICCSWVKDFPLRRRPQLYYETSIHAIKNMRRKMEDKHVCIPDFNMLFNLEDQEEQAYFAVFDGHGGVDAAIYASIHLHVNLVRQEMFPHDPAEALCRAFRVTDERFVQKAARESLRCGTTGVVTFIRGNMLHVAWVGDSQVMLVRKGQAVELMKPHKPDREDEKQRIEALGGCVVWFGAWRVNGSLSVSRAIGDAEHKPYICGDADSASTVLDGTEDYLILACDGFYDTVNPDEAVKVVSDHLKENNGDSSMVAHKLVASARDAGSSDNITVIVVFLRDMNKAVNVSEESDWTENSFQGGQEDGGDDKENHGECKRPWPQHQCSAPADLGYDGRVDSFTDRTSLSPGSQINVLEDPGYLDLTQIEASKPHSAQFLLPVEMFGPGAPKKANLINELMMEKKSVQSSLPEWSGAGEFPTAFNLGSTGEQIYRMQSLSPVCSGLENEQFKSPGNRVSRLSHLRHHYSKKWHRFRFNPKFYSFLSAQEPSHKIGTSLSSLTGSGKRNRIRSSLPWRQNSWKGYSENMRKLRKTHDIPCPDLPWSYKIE

vorinostat = compound: O=C(CCCCCCC(=O)Nc1ccccc1)NO [vorinostat]
Outline: as §1

silmitasertib = compound: O=C(O)c1ccc2c(c1)nc(Nc1cccc(Cl)c1)c1ccncc12 [silmitasertib]
Outline: as §1

[2] = compound: O=C1NC(=O)C(c2cnc3ccccn23)=C1c1cn2c3c(cc(F)cc13)CN(C(=O)N1CCCCC1)CC2
Outline: as §1

entospletinib = compound: c1cn2cc(-c3ccc4cn[nH]c4c3)nc(Nc3ccc(N4CCOCC4)cc3)c2n1 [entospletinib]
Outline: as §1

## PRKRIP1 (UniProt Q9H875)
[1]
  log2 fold change: inactive: 0.028
vorinostat
  log2 fold change: inactive: 0.095
silmitasertib
  log2 fold change: inactive: -0.027
[2]
  log2 fold change: inactive: -0.046
entospletinib
  log2 fold change: inactive: -0.053

## PPP1CA (UniProt P62136)
[1]
  log2 fold change: inactive: 0.03
vorinostat
  log2 fold change: inactive: 0.039
silmitasertib
  log2 fold change: inactive: -0.005
[2]
  log2 fold change: inactive: -0.048
entospletinib
  log2 fold change: inactive: -0.05

## PPIG (UniProt Q13427)
[1]
  log2 fold change: inactive: -0.197
vorinostat
  log2 fold change: inactive: -0.186
silmitasertib
  log2 fold change: inactive: -0.109
[2]
  log2 fold change: inactive: 0.071
entospletinib
  log2 fold change: inactive: -0.038

## PPM1B (UniProt O75688)
[1]
  log2 fold change: inactive: 0.039
vorinostat
  log2 fold change: inactive: 0.039
silmitasertib
  log2 fold change: inactive: -0.007
[2]
  log2 fold change: inactive: -0.012
entospletinib
  log2 fold change: inactive: -0.021

## PRMT1 (UniProt Q99873)
[1]
  log2 fold change: inactive: 0.03
vorinostat
  log2 fold change: inactive: -0.196
silmitasertib
  log2 fold change: inactive: -0.023
[2]
  log2 fold change: inactive: -0.017
entospletinib
  log2 fold change: inactive: 0.013

## PPP2R5C isoform 5 (UniProt Q13362)
[1]
  log2 fold change: inactive: 0.002
vorinostat
  log2 fold change: inactive: 0.049
silmitasertib
  log2 fold change: inactive: 0.019
[2]
  log2 fold change: inactive: 0.022
entospletinib
  log2 fold change: inactive: 0.011

## PPP4R3A (UniProt Q6IN85)
[1]
  log2 fold change: inactive: 0
vorinostat
  log2 fold change: inactive: 0.068
silmitasertib
  log2 fold change: inactive: -0.007
[2]
  log2 fold change: inactive: -0.003
entospletinib
  log2 fold change: inactive: -0.04

## PPP6C isoform 3 (UniProt O00743)
[1]
  log2 fold change: inactive: -0.002
vorinostat
  log2 fold change: inactive: 0.07
silmitasertib
  log2 fold change: inactive: 0.027
[2]
  log2 fold change: inactive: -0.014
entospletinib
  log2 fold change: inactive: 0.001

## PRIMPOL (UniProt Q96LW4)
[1]
  log2 fold change: inactive: -0.03
vorinostat
  log2 fold change: active: -0.337
silmitasertib
  log2 fold change: inactive: 0.034
[2]
  log2 fold change: inactive: -0.028
entospletinib
  log2 fold change: inactive: 0.029

## PPP1R10 (UniProt Q96QC0)
[1]
  log2 fold change: inactive: 0.002
vorinostat
  log2 fold change: inactive: -0.02
silmitasertib
  log2 fold change: inactive: -0.024
[2]
  log2 fold change: inactive: -0.022
entospletinib
  log2 fold change: inactive: -0.045

## PRCC (UniProt Q92733)
[1]
  log2 fold change: inactive: 0.025
vorinostat
  log2 fold change: inactive: 0.145
silmitasertib
  log2 fold change: inactive: -0.033
[2]
  log2 fold change: inactive: 0.019
entospletinib
  log2 fold change: inactive: -0.022

## PPIP5K2 (UniProt O43314)
[1]
  log2 fold change: inactive: -0.01
vorinostat
  log2 fold change: inactive: -0.158
silmitasertib
  log2 fold change: inactive: 0.023
[2]
  log2 fold change: inactive: 0.017
entospletinib
  log2 fold change: inactive: 0.002

## PRPF19 (UniProt Q9UMS4)
[1]
  log2 fold change: inactive: -0.027
vorinostat
  log2 fold change: inactive: 0.031
silmitasertib
  log2 fold change: inactive: -0.01
[2]
  log2 fold change: inactive: -0.028
entospletinib
  log2 fold change: inactive: 0.007

## PPP2R5D (UniProt Q14738)
[1]
  log2 fold change: inactive: 0.002
vorinostat
  log2 fold change: inactive: -0.071
silmitasertib
  log2 fold change: inactive: 0.05
[2]
  log2 fold change: inactive: -0.018
entospletinib
  log2 fold change: inactive: 0.032

## PPP1R12C isoform 4 (UniProt Q9BZL4)
[1]
  log2 fold change: inactive: 0.02
vorinostat
  log2 fold change: inactive: -0.13
silmitasertib
  log2 fold change: inactive: 0.009
[2]
  log2 fold change: inactive: 0.004
entospletinib
  log2 fold change: inactive: -0.013

## PPP4C (UniProt P60510)
[1]
  log2 fold change: inactive: 0.035
vorinostat
  log2 fold change: inactive: 0.093
silmitasertib
  log2 fold change: inactive: 0.027
[2]
  log2 fold change: inactive: -0.03
entospletinib
  log2 fold change: inactive: 0.013

## PRPF6 (UniProt O94906)
[1]
  log2 fold change: inactive: 0.002
vorinostat
  log2 fold change: active: -0.262
silmitasertib
  log2 fold change: inactive: 0.047
[2]
  log2 fold change: inactive: 0.004
entospletinib
  log2 fold change: inactive: 0.026

## PROCR (UniProt Q9UNN8)
[1]
  log2 fold change: inactive: -0.055
vorinostat
  log2 fold change: inactive: 0.11
silmitasertib
  log2 fold change: inactive: 0.103
[2]
  log2 fold change: inactive: -0.036
entospletinib
  log2 fold change: inactive: -0.266

## PRCP (UniProt P42785)
[1]
  log2 fold change: inactive: -0.007
vorinostat
  log2 fold change: inactive: 0.138
silmitasertib
  log2 fold change: inactive: -0.011
[2]
  log2 fold change: inactive: 0.003
entospletinib
  log2 fold change: inactive: 0.006

## PPP1R12A (UniProt O14974)
[1]
  log2 fold change: inactive: 0.019
vorinostat
  log2 fold change: inactive: -0.018
silmitasertib
  log2 fold change: inactive: 0.023
[2]
  log2 fold change: inactive: -0.006
entospletinib
  log2 fold change: inactive: 0.014

## PPP4R2 (UniProt Q9NY27)
[1]
  log2 fold change: inactive: -0.007
vorinostat
  log2 fold change: inactive: -0.053
silmitasertib
  log2 fold change: inactive: -0.016
[2]
  log2 fold change: inactive: 0.023
entospletinib
  log2 fold change: inactive: -0.001

## PRKAA1 isoform 2 (UniProt Q13131)
[1]
  log2 fold change: inactive: -0.094
vorinostat
  log2 fold change: inactive: -0.033
silmitasertib
  log2 fold change: inactive: 0.074
[2]
  log2 fold change: inactive: 0.029
entospletinib
  log2 fold change: inactive: 0.008

## PRKAB1 (UniProt Q9Y478)
[1]
  log2 fold change: inactive: 0.013
vorinostat
  log2 fold change: inactive: -0.046
silmitasertib
  log2 fold change: inactive: 0.04
[2]
  log2 fold change: inactive: 0.023
entospletinib
  log2 fold change: inactive: -0.014

## PPM1E (UniProt Q8WY54)
[1]
  log2 fold change: inactive: 0.008
vorinostat
  log2 fold change: inactive: -0.019
silmitasertib
  log2 fold change: inactive: 0.007
[2]
  log2 fold change: inactive: -0.1
entospletinib
  log2 fold change: inactive: -0.01

Reference: the supplement of paper PMC10849652
